Experimental data as given in US20150282506A1, “FLAVOUR ADDITIVES” (MARS, INCORPORATED, priority 2012, published 2015).
At least one compound was matched to its structure with a doubt left.

System: Cats
Experiment: 2-bottle choice difference test of water intake
Assay type: in vivo
Conditions: Examples 7, 8 and 9: 4 ppm fureneol added to amino acid+nucleotide

## CC1=C(O)C(=O)C(C)O1 (stereo not shown) [Furaneol]
  effect of the addition of fureneol on palatability: significantly increases the palatability
